From PubChem BioAssay AID1508600 (Functional Genomics Laboratory (NCATS/FGL), 2020)
Out of some 53,000 sequences screened, about 3,700 (7%) were called active.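 Rule for the calls: active = gene knockdowns whose robust z-score for IL-1 alpha signal is at least 2 or at most -2, so actives lie on both sides; inactive = the rest.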 Some of the results follow.

Experiment: Components of the Cytosolic LPS Sensing Pathway: Gene Identification via Genome-wide siRNA Screen;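 note: robust z of the log signal after scaling to non-targeting control siRNA wells of the plate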
Conditions: RAW264.7 macrophages, IL-1a HTRF, actives lie on both sides, screened at 100 nM (by protocol), cells primed 5 h with Pam3CSK4 first
Procedure, shortened: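 Three distinct siRNAs per gene were tested singly at 100 nM in RAW264.7 macrophages. Following Pam3CSK4 priming and 24 hour LipidA transfection, IL-1a secretion was read by HTRF.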

z-score, inactive:
CCUAUAGCCGCCUUAUGGATT against Arhgef15 0.0435
GGUCUAAUCAAUGUUUUGCTT against Zfp933 1.54
GGCCUAUUACAAGGAAUUCTT against Gnl3l 1.16
ACUCAUUACACCCUUACCUTT against Nxpe5 -1.19
CCGACUUCGUACAAUGACCTT against Slc1a6 1.45
GCCAAACUUACGUUUUUGATT against Trak2 0.81
GGACUUCUGGAUUGUUGGATT against Thpo -0.0145
CGACAAGGAGACCUACAAATT against Itm2b 0.615
GGUAACAUCCCAGCUUUACTT against Pax7 -0.214
GGUAAAAUCCCAGAACUGCTT against Serpinb1b -0.0969
GGAAACAUUGUCAUCAUGATT against Olfr1299 -0.787
GGAGUUAAUGAUUCAUUGCTT against Ripk3 -0.683
CCUAUGGUAGAUAUCUGUGTT against Rcbtb2 -0.612
GGGUUCAAUGUGAUACACATT against Stard6 -0.815
CGUCCAAGCAUAUAUGAAATT against Slfn8 1.36
GGUAAUCUUUGAAAACCCUTT against Ncoa7 -1.66
GGACUUUUACCUCCUAAAATT against Me2 0.377
GCCUCUUAUUAACUGAACGTT against Spag6 0.155
GGGAUUUGUUAUGUCUGUATT against Srsf7 -1.6
GCUAGUGACUUUGAGAUUGTT against Msh5 -0.75
GGACUAAGCAUUUGUAUCUTT against 3110082I17Rik -0.902
GGCAAUUCUGUGUGUCACUTT against Spata18 -0.254
GGCAAUAUUUCAGAACCUGTT against Tfb2m 0.44
GGAAGUUGAUAAAUGGUCUTT against Pde1a -0.839
GGCCAUAAAAUGGUAGUAUTT against Trim36 0.0952
GGGUGUUUACUUUAUAGAATT against Nlrp4b -0.352
GGUCACUUCACCCUUUGUATT against Gng5 -0.422
CGAUAACAUGUUGAAAAACTT against Kctd10 0.734
GGAGGAAUACCAGGAAUACTT against Sncb 0.33
GGUCUGUUCCGUAUGAAGCTT against Ube2s -0.585
GGCUAUUUAUAGUUGUCGGTT against Unc119 0.0225
CGAUGAAGAUUGUAACUAGTT against 4930555G01Rik 0.498
GGGAAACCUGAACUAACAGTT against Pcdha5 0.259
GGAUAAUUCACUGUCGCUUTT against Cyp2c37 -1.93
GCUUAAUGCCUUGAAACGATT against Tsg101 1.9
GGAACAUGAAGCCUUUUACTT against Asb16 -1.54
GUGAUGGUUGGGCUUCUCATT against Olfr1450 0.416
CCAAAAAUACUUCUCCUUCTT against Gata6 0.72
GCGAAGAGUCAAAUCCAUCTT against Dock8 -1.93
CCUGAACACAAGUGCUGGUTT against Clec4a4 -1.8
GCAGUGGGACAUAGUCAGATT against Tmed11 -0.381
GGUGUAGAUAAGAACUAUGTT against Odf1 1.29
GCUGGUUGUGUUAAAAUGCTT against Cyp4a14 -1.16
CCACGACACGCAAGAUGAGTT against Fzd8 -0.756
GCCACCUAGUACUCAACUATT against Baz2a -1
GGAUGUUUGUGGAUGUGGUTT against Tbx21 -0.4
GGUCUAAAAGGGCUCCUUATT against Cxcl10 1.77
CCGACUUGGUGGAGUAUAGTT against Ddost 0.529
GGAAAUCAACAACUGUAGCTT against Tas1r2 1.33
GGUGUCUACGAAAUUCAAATT against Exosc9 1.11
GGCACUCUUGUUGAAAUUCTT against H6pd 0.756
GGCUUUUUGCUUCACUACUTT against Slco4c1 1.06
CCUUCUUUUGAGAACAGAATT against Nsd1 0.186
GGUCUUACUGUUUGUGAUATT against Olfr1295 -0.0542
CCUGCAAAUGAUACCACCGTT against Olfr734 -0.402
GGAAAUUUGGUGAGCAUUUTT against Synj2bp -1.09
GGCUGAGCUGGAAAUCCAGTT against Aprt -0.859
GCAUGUACCCUCUUUGUAGTT against Gjb6 -0.954
GGUGCUUAAUCAACAGAAATT against Scn3a -1.13
GGAAAAGAGCAACUACCAGTT against Brf1 -0.418
CGAAUUGGAGAGGAGCUUCTT against Otp 0.835
GGUCUCCAAAGCAGAUACCTT against Svil -0.197
GGAGGUCCUAGAGUACAAUTT against Fdps 0.117
GGCUAUCCAAAUUUGAGUCTT against Fer 0.0324

For convenience, part of the list above.
z-score, inactive:
GGCAAUAUUUCAGAACCUGTT against Tfb2m 0.44
GGAAGUUGAUAAAUGGUCUTT against Pde1a -0.839
GGCCAUAAAAUGGUAGUAUTT against Trim36 0.0952
GGGUGUUUACUUUAUAGAATT against Nlrp4b -0.352

Next part.

z-score, active:
GGCUGUAUGUAUAUAGUCCTT against Snrpb -2.41
CGCAUACUGAUGAUAACUATT against Zfp317 2.12
GCCCAAACUCAAGCAAGUCTT against Trpm3 2.37
GCACGGAGCCAAAUAAUCUTT against Rpl28 2.07
